# “And” between values parts separate entries of the source, which are not always exact repeats. Equal entries are not always repeated. Structures can show the parent of a compound that is named as a salt. ± gives the standard deviation of the averaged measurements. This is one part of the list. Plates or batches differ in their baseline, so values are only roughly comparable.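 Culture-activated primary human stellate myofibroblasts, where regained lipid droplets signal inactivation. Value: share of Hoechst-counted cells above a per-plate Bodipy cutoff, in duplicate wells, with DMSO negative and nortriptyline positive controls on each plate. Hits: a control-normalized score above the plate's top-tenth-percentile nortriptyline wells, or one of a plate's three best wells. Final well concentrations are not given.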
# Test system: primary human hepatic stellate cells (donor 1)
# Experiment: percent Bodipy-positive cells; higher = more lipid droplet accumulation
# Details: 48 h
# [1] = library stock concentration: 10 mM
# [2] = library stock concentration: 3.33 mM
# [3] = library stock concentration: 1 mM
# [4] = library stock concentration: 80 uM
# [5] = library stock concentration: 400 uM
# [6] = library stock concentration: 2 mM
# [7] = library stock concentration: 6 mM
smiles,measurement,setting,value
O=C(O)CCCc1ccccc1 [sodium 4-Phenylbutyrate],percent Bodipy-positive cells,[1],5.85 ± 1.9%
O=C(O)CCCc1ccccc1 [Sodium phenylbutyrate],percent Bodipy-positive cells,library stock concentration: 10.7 mM,5.33 ± 0.38%
O=C(O)CCCc1ccccc1 [Sodium Phenylbutyrate],percent Bodipy-positive cells,[2],11.8 ± 3.3%
same,percent Bodipy-positive cells,[1],23.1 ± 6.9%
O=C(O)CCCc1ccccc1,percent Bodipy-positive cells,[1],23.8 ± 1.2%
CC(C)Oc1ccc(C(=O)N[C@H](CNC(=O)CN(C)C)Cc2ccc(-c3cn4cccc([C@H](C)O)c4n3)cc2)cc1Cl,percent Bodipy-positive cells,[2],67.58 ± 0.47%
COC(=O)Nc1nc2cc(C(=O)c3cccs3)ccc2[nH]1 [Nocodazole],percent Bodipy-positive cells,,84 ± 2.6%
CCCCCC(O)C=CC1C(O)CC(O)C1CC=CCCCC(=O)OC (stereo not drawn) [Prostaglandin F2.alpha. methyl ester],percent Bodipy-positive cells,[3],12.4 ± 5%
O=C(O)COC(=O)Cc1ccccc1Nc1c(Cl)cccc1Cl [Aceclofenac],percent Bodipy-positive cells,,28.5 ± 1.8%
OC1(c2ccc(Cl)c(C(F)(F)F)c2)CCN(CCCC(c2ccc(F)cc2)c2ccc(F)cc2)CC1 [Penfluridol],percent Bodipy-positive cells,[2],93.4 ± 4.7%
same,percent Bodipy-positive cells,[1],97.08 ± 0.84%
OC1(c2ccc(Cl)c(C(F)(F)F)c2)CCN(CCCC(c2ccc(F)cc2)c2ccc(F)cc2)CC1,percent Bodipy-positive cells,[1],93.4 ± 1.1%
C[C@@H]1C[C@H]2[C@@H]3CCC4=CC(=O)C=C[C@]4(C)[C@@]3(F)[C@@H](O)C[C@]2(C)[C@@]1(O)C(=O)CO [Dexamethasone (DHAP)],percent Bodipy-positive cells,[2],4.74 ± 1.3%
same,percent Bodipy-positive cells,[1],25.1 ± 6.7%
C[C@@H]1C[C@H]2[C@@H]3CCC4=CC(=O)C=C[C@]4(C)[C@@]3(F)[C@@H](O)C[C@]2(C)[C@@]1(O)C(=O)CO [Dexamethasone],percent Bodipy-positive cells,library stock concentration: 5.1 mM,4.24% and 2.25%
same,percent Bodipy-positive cells,[1],6.23% and 6.86% and 29.9%
same,percent Bodipy-positive cells,library stock concentration: 12.7 mM,10.1 ± 3.1%
"c1ccc(CN2CCC3(CCc4ccccc43)CC2)cc1 [L-693,403 maleate]",percent Bodipy-positive cells,[1],49 ± 3.9%
COc1cc(NS(C)(=O)=O)ccc1Nc1c2ccccc2nc2ccccc12 [Amsacrine hydrochloride],percent Bodipy-positive cells,[1],100%
CCN1CCC[C@H]1CNC(=O)c1c(OC)ccc(Br)c1OC [Remoxipride Hydrochloride],percent Bodipy-positive cells,,10.5 ± 3.7%
CCN1CCC[C@H]1CNC(=O)c1c(OC)ccc(Br)c1OC [Remoxipride],percent Bodipy-positive cells,library stock concentration: 5.4 mM,11.4 ± 2.2%
CCN1CCC[C@H]1CNC(=O)c1c(OC)ccc(Br)c1OC [Remoxipride hydrochloride],percent Bodipy-positive cells,[1],9.54 ± 3.6%
FC(F)c1nc2ccccc2n1-c1nc(N2CCOCC2)nc(N2CCOCC2)n1,percent Bodipy-positive cells,[4],12.6 ± 2.2%
same,percent Bodipy-positive cells,[5],9.23 ± 7.7%
same,percent Bodipy-positive cells,[6],6.19 ± 2.1%
same,percent Bodipy-positive cells,[2],8.37 ± 0.85%
O=C1NC(=O)/C(=C/c2ccc(-c3ccc(F)cc3O)o2)S1,percent Bodipy-positive cells,[1],99.81 ± 0.27%
Cc1cccc(Nc2nc(-c3ccncc3)cs2)c1,percent Bodipy-positive cells,[2],71.1 ± 12%
same,percent Bodipy-positive cells,[1],99.13 ± 0.19%
CCN1CCN(c2cc3c(cc2F)c(=O)c(C(=O)O)cn3C2CC2)CC1,percent Bodipy-positive cells,[1],8.42 ± 3.7%
O=C1C2CC3CC1CC(O)(C3)C2,percent Bodipy-positive cells,[1],45.1 ± 0.6%
CCCCCCCC/C=C\CCCCCCCC(=O)NCCS(=O)(=O)O [N-Oleoyl Taurine],percent Bodipy-positive cells,[3],10.8 ± 1.3%
"C[C@@H](O)CCC[C@@H](O)/C=C/[C@H]1C(O)CC(O)C1CCCCCCC(=O)O (stereo partly drawn) [15(R),19(R)-hydroxy Prostaglandin F1.alpha.]",percent Bodipy-positive cells,[3],16.4 ± 4.9%
N=C(N)S/C=C\C(=O)O [ZAPA sulphate],percent Bodipy-positive cells,[1],7.213 ± 0.0042%
Cc1nnc(NS(=O)(=O)c2ccc(N)cc2)s1 [Sulfamethizole],percent Bodipy-positive cells,,7.06 ± 1.4%
same,percent Bodipy-positive cells,[2],8.08 ± 1.6%
same,percent Bodipy-positive cells,[1],18.8% and 19.3%
Cc1c(C(=O)c2ccccc2)c(N)c(-c2ccccc2)n1Cc1ccc(Cl)cc1,percent Bodipy-positive cells,[3],10.5 ± 0.98%
CN1CCC(=C2c3ccccc3CCc3sccc32)CC1.O=C(O)CC(O)C(=O)O [Pizotifen Malate],percent Bodipy-positive cells,[1],94.3 ± 0.95%
CN(C)c1ccc(/C=C2/C(=O)Nc3ccccc32)cc1,percent Bodipy-positive cells,[1],11% and 5.25%
same,percent Bodipy-positive cells,library stock concentration: 18.9 mM,16.9 ± 0.94%
CC1CC(OC(=O)C(O)c2ccccc2)CC(C)(C)N1C (stereo not drawn) [Eucatropine hydrochloride],percent Bodipy-positive cells,,9.3 ± 5.5%
same,percent Bodipy-positive cells,library stock concentration: 6.1 mM,2.09 ± 1.8%
same,percent Bodipy-positive cells,[1],14.7 ± 4%
CC1=C(C(=O)OC2CCCCC2)C(c2ccc([N+](=O)[O-])cc2)C2=C(CC(C)(C)CC2=O)N1 (stereo not drawn),percent Bodipy-positive cells,[1],92.2 ± 1.7%
c1cc2c(cc1C1CCCCC1)c1c3n2CCNC3CCC1 (stereo not drawn) [Tetrindole mesylate],percent Bodipy-positive cells,[1],59.5 ± 11%
C1CCN2C[C@@H]3C[C@@H](CN4CCCC[C@@H]34)[C@H]2C1 [Sparteine (-)],percent Bodipy-positive cells,,21.7 ± 10%
C1CCN2C[C@@H]3C[C@@H](CN4CCCC[C@@H]34)[C@H]2C1 [Sparteine sulfate],percent Bodipy-positive cells,[7],4.6 ± 1.8%
same,percent Bodipy-positive cells,[1],37.9 ± 5%
COc1ccccc1S(=O)(=O)Nc1ccc2c(c1)CN(C)C(=O)N2,percent Bodipy-positive cells,[4],33.4 ± 0.78%
same,percent Bodipy-positive cells,[5],47.6 ± 9.8%
same,percent Bodipy-positive cells,[6],44.8 ± 5.1%
same,percent Bodipy-positive cells,[2],9.81 ± 0.33%
same,percent Bodipy-positive cells,[1],58% and 45.8%
COc1ccc2c(OC)c3ccoc3nc2c1OC [Skimmianine],percent Bodipy-positive cells,,10.6 ± 4.6%
CC[C@@H]1C(=O)N(C)c2cnc(Nc3ccc(C(=O)N[C@H]4CC[C@H](N5CCN(CC6CC6)CC5)CC4)cc3OC)nc2N1C(C)C [Volasertib],percent Bodipy-positive cells,[1],97.41 ± 0.51%
CC(C(=O)O)c1ccc(N2Cc3ccccc3C2=O)cc1 (stereo not drawn) [Indoprofen],percent Bodipy-positive cells,,12.6 ± 2.1%
same,percent Bodipy-positive cells,library stock concentration: 7.1 mM,2.87 ± 2.3%
same,percent Bodipy-positive cells,[1],16.7 ± 4.7%
CO[C@@]12[C@H](COC(N)=O)C3=C(C(=O)C(C)=C(N)C3=O)N1C[C@@H]1N[C@@H]12 [Mitomycin c],percent Bodipy-positive cells,[7],17.9% and 20.5%
same,percent Bodipy-positive cells,[1],43.6 ± 5.4%
CO[C@@]12[C@H](COC(N)=O)C3=C(C(=O)C(C)=C(N)C3=O)N1C[C@@H]1N[C@@H]12 [Mitomycin C],percent Bodipy-positive cells,library stock concentration: 15 mM,42.4 ± 8.4%
Cc1cc(Nc2ncnc3ccc(-c4ccc(CNCCS(C)(=O)=O)o4)cc23)ccc1Oc1ccn2ncnc2c1 [HER2-Inhibitor-1],percent Bodipy-positive cells,[2],24.1 ± 2.4%
CC1=Nc2ccc(Cl)cc2S(=O)(=O)N1 [Diazoxide],percent Bodipy-positive cells,,23.7 ± 6.5%
same,percent Bodipy-positive cells,library stock concentration: 8.7 mM,10.5% and 7.2%
same,percent Bodipy-positive cells,library stock concentration: 21.7 mM,12.6 ± 7.2%
CC1=Nc2ccc(Cl)cc2S(=O)(=O)N1,percent Bodipy-positive cells,[1],4.63 ± 2.3%
COC(=O)C1=C(C)NC(C)=C(C(=O)OCCCN2CCC(c3ccccc3)(c3ccccc3)CC2)[C@H]1c1cccc([N+](=O)[O-])c1 [Niguldipine],percent Bodipy-positive cells,library stock concentration: 7.7 mM,86.6 ± 8%
COC(=O)C1=C(C)NC(C)=C(C(=O)OCCCN2CCC(c3ccccc3)(c3ccccc3)CC2)[C@H]1c1cccc([N+](=O)[O-])c1 [(S)-(+)-Niguldipine hydrochloride],percent Bodipy-positive cells,[1],80.6 ± 16%
COC(=O)Nc1nc2ccc(SC(C)C)cc2[nH]1 [Methiazole],percent Bodipy-positive cells,,16.2 ± 5.5%
Cc1ccc(Cl)c(Nc2ccccc2C(=O)O)c1Cl [Meclofenamic acid sodium],percent Bodipy-positive cells,[1],19.2 ± 5.5%
Cc1ccc(Cl)c(Nc2ccccc2C(=O)O)c1Cl [Meclofenamate (sodium salt)],percent Bodipy-positive cells,[3],12.1 ± 0.68%
Cc1ccc(Cl)c(Nc2ccccc2C(=O)O)c1Cl [Meclofenamic acid sodium salt monohydrate],percent Bodipy-positive cells,,23.5 ± 9.9%
Cc1ccc(Cl)c(Nc2ccccc2C(=O)O)c1Cl [Meclofenamate Sodium],percent Bodipy-positive cells,[2],24.2 ± 20%
same,percent Bodipy-positive cells,[1],32.7 ± 8.1%
Cc1ccc(Cl)c(Nc2ccccc2C(=O)O)c1Cl [Meclomen],percent Bodipy-positive cells,[1],32.4 ± 1.9%
Cc1ccc(Cl)c(Nc2ccccc2C(=O)O)c1Cl [Meclofenamate sodium],percent Bodipy-positive cells,library stock concentration: 6.3 mM,4.02 ± 0.047%
C=C1/C(=C\C=C2/CCC[C@]3(C)[C@@H]([C@H](C)/C=C/[C@@H](O)C4CC4)CC[C@@H]23)C[C@@H](O)C[C@@H]1O [Calcipotriol],percent Bodipy-positive cells,[1],6.11 ± 0.42%
C=C1/C(=C\C=C2/CCC[C@]3(C)[C@@H]([C@H](C)/C=C/[C@@H](O)C4CC4)CC[C@@H]23)C[C@@H](O)C[C@@H]1O [Calcipotriene],percent Bodipy-positive cells,library stock concentration: 4.8 mM,9.26 ± 1.1%
CCCCCC=CCC=CCC=CCC=CCCCC(=O)OCC(O)CO (stereo not drawn) [1-Arachidonoyl Glycerol],percent Bodipy-positive cells,[3],7.49 ± 0.38%
O=C(NCCO[N+](=O)[O-])c1cccnc1 [Nicorandil],percent Bodipy-positive cells,,44.2 ± 25%
same,percent Bodipy-positive cells,[2],15.9 ± 8.9%
same,percent Bodipy-positive cells,library stock concentration: 9.5 mM,9.85 ± 0.59%
same,percent Bodipy-positive cells,[1],10.7% and 5.81%
O=C(NCCO[N+](=O)[O-])c1cccnc1,percent Bodipy-positive cells,[1],6.04 ± 0.19%
O=C1Nc2ccc(I)cc2C1=Cc1cc(Br)c(O)c(Br)c1,percent Bodipy-positive cells,[2],7.21 ± 3.4%
same,percent Bodipy-positive cells,[1],23.9 ± 2.1%
CC(C)(Cc1ccc2ccccc2c1)NC[C@@H](O)COc1cccc(Cl)c1C#N,percent Bodipy-positive cells,[2],54.2 ± 8.1%
same,percent Bodipy-positive cells,[1],84.2 ± 3.4%
O=C(c1cn(Cc2cncn2Cc2ccc(Br)cc2)cc1-c1cccc2ccccc12)N1CCOCC1,percent Bodipy-positive cells,[2],46.2 ± 8.2%
same,percent Bodipy-positive cells,[1],89.7 ± 7.9%
CCN1CCN(C(=O)N[C@@H](C(=O)N[C@@H]2C(=O)N3C(C(=O)O)=C(CSc4nnnn4C)CS[C@H]23)c2ccc(O)cc2)C(=O)C1=O [Cefoperazone],percent Bodipy-positive cells,[2],8.98 ± 3.8%
same,percent Bodipy-positive cells,[1],14.8 ± 2.8%
CCN1CCN(C(=O)N[C@@H](C(=O)N[C@@H]2C(=O)N3C(C(=O)O)=C(CSc4nnnn4C)CS[C@H]23)c2ccc(O)cc2)C(=O)C1=O [Cefoperazone dihydrate],percent Bodipy-positive cells,,27.4 ± 0.74%
CCN1CCN(C(=O)N[C@@H](C(=O)N[C@@H]2C(=O)N3C(C(=O)O)=C(CSc4nnnn4C)CS[C@H]23)c2ccc(O)cc2)C(=O)C1=O [Cefoperazone sodium],percent Bodipy-positive cells,library stock concentration: 3 mM,17.7 ± 1.7%
same,percent Bodipy-positive cells,[1],21.1 ± 2.6%
CCN1CCN(C(=O)N[C@@H](C(=O)N[C@@H]2C(=O)N3C(C(=O)O)=C(CSc4nnnn4C)CS[C@H]23)c2ccc(O)cc2)C(=O)C1=O [Cefoperazone acid],percent Bodipy-positive cells,library stock concentration: 3.1 mM,8.76 ± 5.1%
CN(C)CCOc1ccc(/C(=C(/CCCl)c2ccccc2)c2ccccc2)cc1 [Toremifene],percent Bodipy-positive cells,library stock concentration: 4.9 mM,24.9 ± 2.2%
CN(C)CCOc1ccc(/C(=C(/CCCl)c2ccccc2)c2ccccc2)cc1 [Toremifene Citrate],percent Bodipy-positive cells,[2],33.7 ± 12%
CN(C)CCOc1ccc(/C(=C(/CCCl)c2ccccc2)c2ccccc2)cc1,percent Bodipy-positive cells,[1],33.2 ± 0.52%
"CCCn1c(=O)c2c(ncn2C)n(CCC)c1=O [1,3-Dipropyl-7-methylxanthine]",percent Bodipy-positive cells,[1],29.9 ± 16%
C[C@H]1C[C@H]2[C@@H]3CCC4=CC(=O)C=C[C@]4(C)[C@@]3(F)[C@@H](O)C[C@]2(C)[C@@]1(O)C(=O)CO [Betamethasone],percent Bodipy-positive cells,,19.1 ± 5.7%
same,percent Bodipy-positive cells,[2],6.52 ± 2.8%
same,percent Bodipy-positive cells,library stock concentration: 4 mM,6.94 ± 0.46%
CC(C)COCC(CN(Cc1ccccc1)c1ccccc1)N1CCCC1.Cl (stereo not drawn),percent Bodipy-positive cells,library stock concentration: 12.4 mM,89.64 ± 0.59%
"CNC(=O)[C@H](Cc1c[nH]c2ccccc12)NC(=O)[C@@H](CC(=O)NO)CC(C)C [Ilomastat (GM6001, Galardin)]",percent Bodipy-positive cells,[2],30.7 ± 2.5%
same,percent Bodipy-positive cells,[1],29.9 ± 4.8%
CNC(=O)[C@H](Cc1c[nH]c2ccccc12)NC(=O)[C@@H](CC(=O)NO)CC(C)C,percent Bodipy-positive cells,library stock concentration: 12.9 mM,13.3 ± 1%
